# Test results: the supplement of paper PMC12067093, “Discovery and optimisation of a covalent ligand for TRIM25 and its application to targeted protein ubiquitination” (Chemical Science, 2025)
# Amino acid sequences for entries named in this document (tags omitted). A change or cut given only in a name is not applied to a line headed by its entry.
# UniProt Q9H3R5: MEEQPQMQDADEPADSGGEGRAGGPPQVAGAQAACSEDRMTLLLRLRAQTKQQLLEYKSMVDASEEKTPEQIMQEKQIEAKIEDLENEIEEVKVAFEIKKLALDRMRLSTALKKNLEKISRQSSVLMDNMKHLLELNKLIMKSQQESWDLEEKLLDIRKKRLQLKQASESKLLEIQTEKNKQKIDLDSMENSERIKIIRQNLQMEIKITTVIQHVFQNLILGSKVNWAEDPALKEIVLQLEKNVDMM
# UniProt Q5VT06: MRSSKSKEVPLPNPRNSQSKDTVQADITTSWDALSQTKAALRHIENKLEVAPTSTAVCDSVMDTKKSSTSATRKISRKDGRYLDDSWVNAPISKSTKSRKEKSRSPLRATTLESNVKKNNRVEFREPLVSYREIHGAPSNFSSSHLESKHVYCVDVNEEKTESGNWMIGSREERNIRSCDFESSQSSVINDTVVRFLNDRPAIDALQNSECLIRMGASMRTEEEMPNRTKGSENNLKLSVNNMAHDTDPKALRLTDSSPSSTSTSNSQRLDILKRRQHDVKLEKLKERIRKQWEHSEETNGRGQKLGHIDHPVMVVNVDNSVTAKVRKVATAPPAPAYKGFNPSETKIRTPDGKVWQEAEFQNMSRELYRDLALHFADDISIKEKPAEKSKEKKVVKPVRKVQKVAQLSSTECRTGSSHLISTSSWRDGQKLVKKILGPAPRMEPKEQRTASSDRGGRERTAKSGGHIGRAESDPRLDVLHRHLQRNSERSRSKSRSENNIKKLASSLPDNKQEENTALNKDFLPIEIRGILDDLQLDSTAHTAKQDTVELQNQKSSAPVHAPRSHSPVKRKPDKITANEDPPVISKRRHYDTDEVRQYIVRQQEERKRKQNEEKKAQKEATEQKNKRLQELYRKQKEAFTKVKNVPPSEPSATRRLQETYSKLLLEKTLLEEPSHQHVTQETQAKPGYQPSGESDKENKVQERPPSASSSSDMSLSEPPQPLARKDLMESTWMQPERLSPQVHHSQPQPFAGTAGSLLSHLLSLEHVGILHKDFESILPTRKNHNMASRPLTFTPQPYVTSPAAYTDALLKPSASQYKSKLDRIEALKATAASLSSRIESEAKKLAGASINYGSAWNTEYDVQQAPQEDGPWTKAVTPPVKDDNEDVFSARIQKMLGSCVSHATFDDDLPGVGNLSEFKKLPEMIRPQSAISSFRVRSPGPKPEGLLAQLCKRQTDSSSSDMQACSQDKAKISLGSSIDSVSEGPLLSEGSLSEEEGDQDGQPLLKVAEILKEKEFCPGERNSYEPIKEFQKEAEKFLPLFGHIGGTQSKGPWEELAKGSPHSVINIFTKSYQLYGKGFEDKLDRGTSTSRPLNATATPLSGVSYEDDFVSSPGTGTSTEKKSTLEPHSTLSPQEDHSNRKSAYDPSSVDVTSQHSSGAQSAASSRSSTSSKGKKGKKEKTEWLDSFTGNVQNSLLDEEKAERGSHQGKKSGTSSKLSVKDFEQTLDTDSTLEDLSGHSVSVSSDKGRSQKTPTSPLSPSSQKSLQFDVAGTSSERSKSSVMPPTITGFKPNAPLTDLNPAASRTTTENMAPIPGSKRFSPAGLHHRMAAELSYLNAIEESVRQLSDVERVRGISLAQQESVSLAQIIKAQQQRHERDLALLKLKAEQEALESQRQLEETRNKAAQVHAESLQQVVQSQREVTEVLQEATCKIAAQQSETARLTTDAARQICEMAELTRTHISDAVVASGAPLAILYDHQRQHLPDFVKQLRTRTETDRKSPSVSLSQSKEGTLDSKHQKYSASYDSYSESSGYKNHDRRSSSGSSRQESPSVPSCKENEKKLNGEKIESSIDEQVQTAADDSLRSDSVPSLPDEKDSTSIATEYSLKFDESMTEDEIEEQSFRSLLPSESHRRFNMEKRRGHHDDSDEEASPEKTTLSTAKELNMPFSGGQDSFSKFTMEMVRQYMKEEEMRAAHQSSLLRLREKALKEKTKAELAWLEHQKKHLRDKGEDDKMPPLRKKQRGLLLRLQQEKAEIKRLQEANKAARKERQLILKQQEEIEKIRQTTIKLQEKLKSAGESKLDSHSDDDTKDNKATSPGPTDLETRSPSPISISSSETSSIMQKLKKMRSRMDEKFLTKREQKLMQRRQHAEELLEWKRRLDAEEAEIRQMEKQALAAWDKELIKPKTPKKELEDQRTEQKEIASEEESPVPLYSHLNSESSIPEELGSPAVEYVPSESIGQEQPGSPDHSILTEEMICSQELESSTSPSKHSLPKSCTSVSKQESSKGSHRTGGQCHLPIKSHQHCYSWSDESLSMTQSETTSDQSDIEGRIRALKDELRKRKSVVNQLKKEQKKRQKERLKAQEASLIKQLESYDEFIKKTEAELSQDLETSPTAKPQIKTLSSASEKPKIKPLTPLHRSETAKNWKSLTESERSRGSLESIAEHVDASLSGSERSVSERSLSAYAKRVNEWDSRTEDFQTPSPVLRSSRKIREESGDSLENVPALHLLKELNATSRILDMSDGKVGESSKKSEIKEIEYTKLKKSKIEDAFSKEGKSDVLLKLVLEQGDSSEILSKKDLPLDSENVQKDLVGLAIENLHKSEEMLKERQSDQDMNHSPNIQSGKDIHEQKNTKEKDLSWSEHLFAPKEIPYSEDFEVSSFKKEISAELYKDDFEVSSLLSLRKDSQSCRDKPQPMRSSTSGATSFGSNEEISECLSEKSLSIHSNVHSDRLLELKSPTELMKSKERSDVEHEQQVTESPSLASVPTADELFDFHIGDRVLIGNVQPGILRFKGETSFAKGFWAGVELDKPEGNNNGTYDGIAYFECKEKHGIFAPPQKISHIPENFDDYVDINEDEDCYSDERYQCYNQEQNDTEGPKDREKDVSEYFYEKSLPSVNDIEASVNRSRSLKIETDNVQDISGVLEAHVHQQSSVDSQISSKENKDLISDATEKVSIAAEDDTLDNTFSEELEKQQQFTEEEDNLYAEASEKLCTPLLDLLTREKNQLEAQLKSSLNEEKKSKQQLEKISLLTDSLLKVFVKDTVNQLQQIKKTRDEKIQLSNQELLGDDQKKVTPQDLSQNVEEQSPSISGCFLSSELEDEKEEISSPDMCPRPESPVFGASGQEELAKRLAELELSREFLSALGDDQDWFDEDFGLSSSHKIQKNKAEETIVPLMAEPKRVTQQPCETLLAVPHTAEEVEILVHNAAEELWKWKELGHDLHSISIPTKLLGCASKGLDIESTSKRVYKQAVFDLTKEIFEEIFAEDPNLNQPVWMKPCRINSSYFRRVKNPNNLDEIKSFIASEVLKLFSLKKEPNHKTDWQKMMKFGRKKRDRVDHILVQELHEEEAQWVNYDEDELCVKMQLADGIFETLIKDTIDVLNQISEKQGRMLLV
# UniProt P30260, whole entry, looked up: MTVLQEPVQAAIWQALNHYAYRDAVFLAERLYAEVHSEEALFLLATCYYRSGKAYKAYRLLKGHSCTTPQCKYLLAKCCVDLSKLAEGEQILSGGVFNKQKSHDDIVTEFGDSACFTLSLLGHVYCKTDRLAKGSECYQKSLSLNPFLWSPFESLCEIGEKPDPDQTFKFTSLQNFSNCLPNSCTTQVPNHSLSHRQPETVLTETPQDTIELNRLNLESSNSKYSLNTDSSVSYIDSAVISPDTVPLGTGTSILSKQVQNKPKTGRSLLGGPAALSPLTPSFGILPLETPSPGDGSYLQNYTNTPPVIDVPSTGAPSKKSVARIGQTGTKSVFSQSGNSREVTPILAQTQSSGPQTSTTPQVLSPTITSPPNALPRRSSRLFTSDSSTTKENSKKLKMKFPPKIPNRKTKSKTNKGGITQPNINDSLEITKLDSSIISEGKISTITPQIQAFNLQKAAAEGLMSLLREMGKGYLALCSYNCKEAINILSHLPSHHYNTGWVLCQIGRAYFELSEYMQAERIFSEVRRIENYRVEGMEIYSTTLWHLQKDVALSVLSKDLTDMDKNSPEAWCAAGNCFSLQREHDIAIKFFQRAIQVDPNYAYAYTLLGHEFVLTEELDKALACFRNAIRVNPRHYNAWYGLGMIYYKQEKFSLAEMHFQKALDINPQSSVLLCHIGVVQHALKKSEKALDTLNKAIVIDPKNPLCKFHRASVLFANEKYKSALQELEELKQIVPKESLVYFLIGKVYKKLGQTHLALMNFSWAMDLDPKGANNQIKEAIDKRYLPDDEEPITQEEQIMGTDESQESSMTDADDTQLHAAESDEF
# UniProt Q9BS16: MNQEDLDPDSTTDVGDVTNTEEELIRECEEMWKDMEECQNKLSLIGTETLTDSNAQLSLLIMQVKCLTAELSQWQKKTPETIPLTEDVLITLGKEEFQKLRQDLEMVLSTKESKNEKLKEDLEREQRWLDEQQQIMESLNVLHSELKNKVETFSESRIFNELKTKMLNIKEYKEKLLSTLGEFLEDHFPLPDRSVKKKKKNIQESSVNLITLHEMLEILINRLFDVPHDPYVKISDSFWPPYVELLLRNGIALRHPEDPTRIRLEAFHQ
# UniProt O60508: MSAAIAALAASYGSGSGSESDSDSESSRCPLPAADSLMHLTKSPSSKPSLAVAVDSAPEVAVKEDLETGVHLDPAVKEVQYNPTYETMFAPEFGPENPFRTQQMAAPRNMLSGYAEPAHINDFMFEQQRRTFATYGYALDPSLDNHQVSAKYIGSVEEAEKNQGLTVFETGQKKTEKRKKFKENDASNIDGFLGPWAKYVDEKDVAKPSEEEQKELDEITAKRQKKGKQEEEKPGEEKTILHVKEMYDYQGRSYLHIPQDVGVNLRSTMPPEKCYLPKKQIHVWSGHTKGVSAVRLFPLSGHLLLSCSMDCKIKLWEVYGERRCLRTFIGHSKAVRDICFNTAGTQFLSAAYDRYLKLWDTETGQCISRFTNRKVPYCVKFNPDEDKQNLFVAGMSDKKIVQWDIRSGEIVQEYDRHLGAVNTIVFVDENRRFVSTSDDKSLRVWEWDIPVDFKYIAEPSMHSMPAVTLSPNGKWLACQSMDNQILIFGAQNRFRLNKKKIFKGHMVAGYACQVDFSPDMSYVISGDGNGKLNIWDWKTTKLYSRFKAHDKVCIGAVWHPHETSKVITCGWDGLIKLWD
# UniProt Q01850: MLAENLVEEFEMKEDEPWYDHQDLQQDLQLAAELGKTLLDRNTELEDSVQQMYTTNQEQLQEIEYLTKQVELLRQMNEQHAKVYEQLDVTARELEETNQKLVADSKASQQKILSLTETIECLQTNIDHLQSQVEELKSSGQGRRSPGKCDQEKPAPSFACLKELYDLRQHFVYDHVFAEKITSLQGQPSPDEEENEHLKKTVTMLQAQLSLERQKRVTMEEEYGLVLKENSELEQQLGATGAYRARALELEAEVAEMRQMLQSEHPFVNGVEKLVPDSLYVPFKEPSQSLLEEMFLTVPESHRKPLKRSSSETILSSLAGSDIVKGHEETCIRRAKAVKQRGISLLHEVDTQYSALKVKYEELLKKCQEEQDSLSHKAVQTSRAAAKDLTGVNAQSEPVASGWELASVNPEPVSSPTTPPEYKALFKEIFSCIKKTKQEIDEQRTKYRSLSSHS
# UniProt Q12834, whole entry, looked up: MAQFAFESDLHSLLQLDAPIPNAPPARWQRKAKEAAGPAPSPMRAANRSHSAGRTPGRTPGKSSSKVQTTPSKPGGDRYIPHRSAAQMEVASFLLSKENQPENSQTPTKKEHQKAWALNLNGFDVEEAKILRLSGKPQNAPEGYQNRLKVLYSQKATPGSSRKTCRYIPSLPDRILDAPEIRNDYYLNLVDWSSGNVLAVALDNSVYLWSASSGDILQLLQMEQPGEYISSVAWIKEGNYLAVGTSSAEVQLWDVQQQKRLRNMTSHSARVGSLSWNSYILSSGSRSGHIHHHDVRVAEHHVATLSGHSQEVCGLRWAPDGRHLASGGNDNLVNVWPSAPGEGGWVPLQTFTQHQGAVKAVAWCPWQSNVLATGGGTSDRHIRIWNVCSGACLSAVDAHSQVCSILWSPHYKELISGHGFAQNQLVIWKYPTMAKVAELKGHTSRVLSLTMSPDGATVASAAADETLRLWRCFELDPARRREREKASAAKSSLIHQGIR
# UniProt Q99832: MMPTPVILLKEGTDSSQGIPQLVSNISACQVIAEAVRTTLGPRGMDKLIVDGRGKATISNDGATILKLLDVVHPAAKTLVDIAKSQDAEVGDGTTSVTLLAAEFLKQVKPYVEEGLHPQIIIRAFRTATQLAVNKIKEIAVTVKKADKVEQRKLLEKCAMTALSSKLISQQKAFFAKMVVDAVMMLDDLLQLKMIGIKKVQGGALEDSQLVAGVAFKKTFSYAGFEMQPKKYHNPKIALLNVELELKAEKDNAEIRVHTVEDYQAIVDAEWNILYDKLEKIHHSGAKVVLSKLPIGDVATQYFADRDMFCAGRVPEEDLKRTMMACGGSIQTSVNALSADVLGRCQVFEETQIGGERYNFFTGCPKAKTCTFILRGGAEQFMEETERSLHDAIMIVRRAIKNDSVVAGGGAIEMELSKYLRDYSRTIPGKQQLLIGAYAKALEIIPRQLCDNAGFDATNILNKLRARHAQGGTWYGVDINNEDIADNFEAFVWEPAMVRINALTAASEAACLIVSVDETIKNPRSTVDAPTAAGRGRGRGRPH
# Some of the results follow.
# Compound: CC1Cc2ccccc2N1C(=O)C1CCCN(C1)C(=O)CCl (mixture of isomers) [TRIM25 ligand 11 (diastereomer mixture)]
# Assay: probe-labelled cysteine peptide fold change vs DMSO (competition) (log2 fold change); higher = less target engagement (more negative = stronger competition)
# Conditions: THP-1, incubation time: 4 h
# 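Also: competitive chemoproteomic profiling in live THP-1 cells with an iodoacetamide desthiobiotin (IA-DTB) probe, comparing probe-labelled peptide intensities in compound-treated cells against DMSO-treated controls.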
Target,probe-labelled cysteine peptide fold change (10 µM),probe-labelled cysteine peptide fold change (50 µM)
CENPH_Q9H3R5_35_AGGPPQVAGAQAACSEDR (UniProt Q9H3R5),0.0306,-0.0667
CEP350_Q5VT06_3083_DRVDHILVQELHEEEAQWVNYDEDELCVK (UniProt Q5VT06),0.0465,-0.0413
CDC27_P30260_481_GYLALCSYNCK (UniProt P30260),-0.0893,0.21
CENPK_Q9BS16_66_CLTAELSQWQK (UniProt Q9BS16),-0.0906,-0.0614
CDC40_O60508_553_VCIGAVWHPHETSK (UniProt O60508),0.00393,-0.0128
CELF1_Q92879_137_VMFSSFGQIEECR (UniProt Q92879),0.0585,0.0849
CDR2_Q01850_432_EIFSCIK (UniProt Q01850),-0.0611,0.237
CD300LF_Q8TDQ1_264_EDISYASLTLGAEDQEPTYCNMGHLSSHLPGR (UniProt Q8TDQ1),0.0559,0.0308
CDC20_Q12834_364_AVAWCPWQSNVLATGGGTSDR (UniProt Q12834),0.0333,-0.119
CDK13_Q14004_644_CLLADLPLPPELPGGDDLSK (UniProt Q14004),0.35,-0.317
CCT7_Q99832_158_CAMTALSSK (UniProt Q99832),0.0692,0.0563
CD109_Q6YHK3_1302_ENKDDLNHVDLNVCTSFSGPGR (UniProt Q6YHK3),-0.0621,-0.183
CEP41_Q9BYV8_240_IIILYDDDERLASQAATTMCER (UniProt Q9BYV8),-0.212,-0.185
CCT7_Q99832_345_CQVFEETQIGGER (UniProt Q99832),-0.0141,0.0317

# Part of the list above, with tabs:
Target	probe-labelled cysteine peptide fold change (10 µM)	probe-labelled cysteine peptide fold change (50 µM)
CDC40_O60508_553_VCIGAVWHPHETSK (UniProt O60508)	0.00393	-0.0128
CDC20_Q12834_364_AVAWCPWQSNVLATGGGTSDR (UniProt Q12834)	0.0333	-0.119
